Construct, isoform or probe ends are uncertain for at least one entry. No signal at the amounts used counts as a negative. A weaker result is weaker than the reference pair of the same experiment.
Target: hnRNPAB (CBF-A) (Mus musculus (C57BL/6 E16.5 cortex cDNA)) (UniProt Q99020)
Assay: pull-down
Conditions: Dig-RNA pull-down: 50 mM Tris-HCl pH 7.4, 150 mM NaCl, 0.5% NP-40, 2 mM RVC, 4 C 4 h, recombinant protein, protein details: C-terminal 3xFlag, label: digoxigenin, probe letters rebuilt from the primers and the genome

The chains behind the UniProt entries cited, without tags or fusion partners. Where a name states a change or a piece, a line headed by the entry shows the natural chain unless it says otherwise.
UniProt Q99020: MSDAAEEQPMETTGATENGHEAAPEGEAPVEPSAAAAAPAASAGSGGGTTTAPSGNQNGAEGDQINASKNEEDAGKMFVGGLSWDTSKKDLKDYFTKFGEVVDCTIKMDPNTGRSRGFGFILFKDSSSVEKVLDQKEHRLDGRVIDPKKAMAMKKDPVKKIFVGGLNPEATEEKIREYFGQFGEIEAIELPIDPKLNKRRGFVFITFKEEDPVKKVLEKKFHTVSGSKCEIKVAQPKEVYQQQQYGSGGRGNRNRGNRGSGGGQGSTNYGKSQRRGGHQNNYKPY

Row | Sequence | binding result | binding result (weaker than 455-908)
1 | GGAGAACUCCCCUGCCUCAAAGGAACGAGAUGACGAAUGAGGAUGCCUAAAACCUCCUCUGGCCUCCGAGAGUCCAUGGGUCCAAGCACCUGCACAUGACACAUGCAUAAGUAAUGAUCACCCAGUGCCCAAUGCUGAGCCUGUGGCUACGGAGAGAGAGAGCAGACAUAUCUUCUUGCCUCUGGCUACUAGACUGCCCUGAGAUCAGAGAGAUCCUGCACCAGGUGCCUGGGUUGUACAGAACCAGGGACGGAACGUAUGGUGUUGGGUGUGAUAGGUAAUCACUUAGCUACAUCACCCACAUCCCUGCCUGUCACUGUCUUUAAUAUACAUCAUAUCUUAAGCGGUACCUCUGUUUGGUCUCAAACUACAACUUAGCUGGAAGCCCACACCCUGCCAUUUCUCCCCAAGUGCCCGCACUACAAUCCCUCCCACGGGGUGUAGUUCCUCUUUCCUGGGUAAAUUAUUUUGCAGGUGGUGUCACU [LncKdm2b 909-1391] | no binding | –
2 | GGAGACUGCAUAACUUUUAAACUCCCGGGGCUGAAAUAAUAAUAUGGAGACACACGCACAGGUACAGGAAAUACAGCCAGUCCACAGCCUUUUCAGACUGCAGCUGACCGGAAGAAAGCCUUUGGUUCAUUCAUUCGGAUAGCCUCGGUAGUACAGCCCUGAAAUAGAAGUUGGGCUUUUAAAGAGAAAGGAAAAAAAGUCUCUACACUCGCUGAGAAGAGAUAAAUCGAUACACAGGAGGGAAUAGAGAAUCGGAUUCAGCGUCUCUAAUGCAGGCAGGCAAAAGGCUUCUGUGCCCUGUGGCUUGAAGUAAAAAAGAAACAAAACUCUUUAACAACUGUCCAGCCUGACUCUUGGAGAACGGCUUAAUGUUCUACUUAGCAUUCUGGGUGGUUUUUUGUUUUUCCAGUGUGCCUCUUCCUGUGUAAGGACUGGAAAGGACCCUGGAAACCACAG [LncKdm2b 455-908] | binds | –
3 | GGGACUUUUGGAGGGCUGAGUUGCAGGCGGCGGGCGCAUCCCAGAGAUGGCGGGGCAGGGAGGGAGGGAAAGAGAGGAGGGGGUGGGGAGGGAGGUGCAGAUUUGCACGGAUGGCCUCAGCGGGAGGCGCGGAAAUGCUAGCCAAGCCUGCUGGCGUGAAAGCCCCCGGGGCCUGGCACCCCCCAAAACGACCCCCCACCUCUGCCCCUGCCCCCUCUUGCUUGGGUUACGCAGGGCUGUCCCUCUCUUCCUUCACCCACCUUUCCUCAUUACCUAUGCUGGCGACCUAAAUUCAAAGUAUUUUGUAUGUGUGAUUUCUUUUUCUGUUUUGCUUUUCUACUGCAUGCCUGGGGGGAGGGGCCAGCCUGUCCAGACCCUUAUCCAUUUGCGAACCUGCCAUAUGGAGGAGGCAUCUGAGGGGCUCAGAAAGAAAUUACCUCAGCACUGUAUCUGUAC [LncKdm2b 1-454] | – | binds more weakly
